Test: Expt 1: body weight and plasma measures
Type: in vivo, pig
Conditions: BD + phytase 2,000 U/kg, 6 wk

B1: Phytase: Escherichia coli AppA2 phytase (OptiPhos, JBS United, Inc.), added to diets at feed mixing; AppA2 is SEQ ID NO: 2 (protein, listed as Escherichia coli)
chain: MKAILIPFLSLLIPLTPQSAFAQSEPELKLESVVIVSRHGVRAPTKATQLMQDVTPDAWPTWPVKLGWLTPRGGELIAYLGHYQRQRLVADGLLAKKGCPQPGQVAIIADVDERTRKTGEAFAAGLAPDCAITVHTQADTSSPDPLFNPLKTGVCQLDNANVTDAILSRAGGSIADFTGHRQTAFRELERVLNFSQLNLCLNREKQDESCSLTQALPSELKVSADNVSLTGAVSLASMLTEIFLLQQAQGMPEPGWGRITDSHQWNTLLSLHNAQFYLLQRTPEVARSRATPLLDLIMAALTPHPPQKQAYGVTLPTSVLFIAGHDTNLANLGGALELNWTLPGQPDNTPPGGELVFERWRRLSDNSQWIQVSLVFQTLQQMRDKTPLSLNTPPGEVKLTLAGCEERNAQGMCSLAGFTQIVNEARIPACSL
- body weight at the end of the experiment: 33.4 ± 0.8 kg
- plasma alkaline phosphatase activity at the end of the experiment: 173.0±6.8 U/L
- plasma inorganic P concentration at the end of the experiment: 83.6 ± 0.1 g/L

Source: US8192734B2, “Compositions and methods for bone strengthening” (Cornell University, priority 2007, dated 2012)
